The source of these data is article doi:10.1101/2020.04.20.050328.

Protein sequences, listed by entry. Tags and fused reporters are not part of them.
UniProt Q9Y230: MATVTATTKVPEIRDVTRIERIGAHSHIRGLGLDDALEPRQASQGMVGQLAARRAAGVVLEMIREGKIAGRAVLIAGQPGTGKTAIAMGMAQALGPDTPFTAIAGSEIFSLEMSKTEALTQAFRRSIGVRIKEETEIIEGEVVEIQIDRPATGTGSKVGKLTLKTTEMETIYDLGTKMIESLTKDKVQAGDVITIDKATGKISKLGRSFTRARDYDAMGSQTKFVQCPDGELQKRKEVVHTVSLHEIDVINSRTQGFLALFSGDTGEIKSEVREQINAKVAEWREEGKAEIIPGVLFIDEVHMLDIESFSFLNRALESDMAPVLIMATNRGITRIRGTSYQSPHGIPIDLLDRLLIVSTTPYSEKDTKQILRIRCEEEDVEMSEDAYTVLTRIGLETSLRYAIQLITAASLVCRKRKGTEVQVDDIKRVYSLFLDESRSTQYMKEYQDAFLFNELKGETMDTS
UniProt Q02248: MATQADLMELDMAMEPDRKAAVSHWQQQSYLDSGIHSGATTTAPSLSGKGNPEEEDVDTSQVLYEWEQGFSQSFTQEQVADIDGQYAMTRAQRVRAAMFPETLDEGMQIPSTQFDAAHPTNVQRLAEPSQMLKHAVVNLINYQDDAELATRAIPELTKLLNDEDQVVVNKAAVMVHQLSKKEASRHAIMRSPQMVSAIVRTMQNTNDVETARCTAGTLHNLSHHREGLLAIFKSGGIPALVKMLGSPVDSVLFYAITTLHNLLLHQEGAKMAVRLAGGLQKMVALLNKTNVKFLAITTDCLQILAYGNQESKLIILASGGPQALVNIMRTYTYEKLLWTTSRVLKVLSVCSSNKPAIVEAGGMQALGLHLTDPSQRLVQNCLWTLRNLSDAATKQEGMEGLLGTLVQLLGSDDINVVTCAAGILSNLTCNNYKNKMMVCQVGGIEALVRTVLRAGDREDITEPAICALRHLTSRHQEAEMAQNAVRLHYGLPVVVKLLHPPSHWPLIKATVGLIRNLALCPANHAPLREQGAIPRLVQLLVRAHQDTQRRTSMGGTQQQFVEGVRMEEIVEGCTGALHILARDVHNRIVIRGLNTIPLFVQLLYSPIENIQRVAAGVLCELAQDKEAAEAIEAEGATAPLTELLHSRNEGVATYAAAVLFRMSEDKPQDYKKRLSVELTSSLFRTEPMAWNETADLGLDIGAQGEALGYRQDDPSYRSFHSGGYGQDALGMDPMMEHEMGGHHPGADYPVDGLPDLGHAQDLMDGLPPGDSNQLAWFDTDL
UniProt P35222: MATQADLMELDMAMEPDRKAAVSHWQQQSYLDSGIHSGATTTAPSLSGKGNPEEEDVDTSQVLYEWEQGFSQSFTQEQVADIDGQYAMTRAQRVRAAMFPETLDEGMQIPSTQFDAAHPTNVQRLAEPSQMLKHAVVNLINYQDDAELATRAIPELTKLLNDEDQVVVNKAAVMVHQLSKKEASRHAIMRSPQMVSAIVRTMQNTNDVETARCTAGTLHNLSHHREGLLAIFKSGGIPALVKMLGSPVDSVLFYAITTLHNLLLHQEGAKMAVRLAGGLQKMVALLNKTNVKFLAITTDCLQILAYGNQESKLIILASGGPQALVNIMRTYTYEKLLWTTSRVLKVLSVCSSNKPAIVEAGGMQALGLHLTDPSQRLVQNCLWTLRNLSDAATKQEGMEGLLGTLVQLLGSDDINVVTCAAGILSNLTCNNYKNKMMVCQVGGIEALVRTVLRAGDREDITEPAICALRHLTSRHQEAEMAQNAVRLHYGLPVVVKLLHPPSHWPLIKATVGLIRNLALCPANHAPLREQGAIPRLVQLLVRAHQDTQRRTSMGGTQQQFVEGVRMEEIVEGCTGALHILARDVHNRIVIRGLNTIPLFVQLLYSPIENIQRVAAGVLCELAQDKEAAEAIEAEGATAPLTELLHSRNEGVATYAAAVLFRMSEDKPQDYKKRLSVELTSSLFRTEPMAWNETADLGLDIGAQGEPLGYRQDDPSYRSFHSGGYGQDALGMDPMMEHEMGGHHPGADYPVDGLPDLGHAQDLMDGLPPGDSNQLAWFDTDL
UniProt Q16665: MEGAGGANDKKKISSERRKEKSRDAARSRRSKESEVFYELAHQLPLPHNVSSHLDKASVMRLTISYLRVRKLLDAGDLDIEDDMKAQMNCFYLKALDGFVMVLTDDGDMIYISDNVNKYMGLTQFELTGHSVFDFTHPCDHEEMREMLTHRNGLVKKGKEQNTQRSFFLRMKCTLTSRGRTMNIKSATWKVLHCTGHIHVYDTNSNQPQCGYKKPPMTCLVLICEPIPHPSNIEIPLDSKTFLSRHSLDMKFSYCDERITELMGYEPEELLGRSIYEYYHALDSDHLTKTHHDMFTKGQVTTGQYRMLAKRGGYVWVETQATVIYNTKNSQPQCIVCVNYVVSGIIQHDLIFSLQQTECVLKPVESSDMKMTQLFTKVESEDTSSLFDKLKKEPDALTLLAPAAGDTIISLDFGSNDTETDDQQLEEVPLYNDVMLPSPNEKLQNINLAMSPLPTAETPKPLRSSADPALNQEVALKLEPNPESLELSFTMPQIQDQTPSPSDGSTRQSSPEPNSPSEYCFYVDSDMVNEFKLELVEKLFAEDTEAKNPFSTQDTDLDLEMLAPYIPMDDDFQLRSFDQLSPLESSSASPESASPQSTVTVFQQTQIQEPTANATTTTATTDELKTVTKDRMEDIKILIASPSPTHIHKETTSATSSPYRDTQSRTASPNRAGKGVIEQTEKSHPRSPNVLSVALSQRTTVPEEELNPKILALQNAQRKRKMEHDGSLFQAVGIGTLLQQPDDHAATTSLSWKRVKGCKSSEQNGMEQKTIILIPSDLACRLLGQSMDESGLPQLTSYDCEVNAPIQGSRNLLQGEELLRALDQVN
UniProt Q9WTM5: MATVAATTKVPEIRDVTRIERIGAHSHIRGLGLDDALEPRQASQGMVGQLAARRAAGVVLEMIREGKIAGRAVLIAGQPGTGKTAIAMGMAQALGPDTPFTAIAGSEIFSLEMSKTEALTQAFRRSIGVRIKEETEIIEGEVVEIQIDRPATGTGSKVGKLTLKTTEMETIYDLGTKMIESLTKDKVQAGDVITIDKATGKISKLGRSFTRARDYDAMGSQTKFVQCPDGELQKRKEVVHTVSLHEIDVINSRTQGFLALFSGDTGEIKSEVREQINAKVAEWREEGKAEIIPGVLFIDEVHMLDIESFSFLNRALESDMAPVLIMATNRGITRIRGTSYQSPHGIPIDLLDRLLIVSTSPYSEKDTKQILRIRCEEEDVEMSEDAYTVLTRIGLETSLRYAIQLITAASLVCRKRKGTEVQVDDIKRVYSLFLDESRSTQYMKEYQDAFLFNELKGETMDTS

For experiment [1], the target named is RUVBL2 (human (endogenous in A549)) (UniProt Q9Y230). Briefly: co-IP.
Experiment [2] has as its target β-catenin (mouse, in tumor-propagating cells) (mouse (endogenous in KP tumor-propagating cells)) (UniProt Q02248). In words: proximity ligation.

No constants are given. Whether binding was seen depends on the method and setting. Binding seen in cells or lysates may run through a third protein. Some entries that bind do so weakly or less than the wild type.

Take β-catenin (from UniProt P35222 1-781): the binding entry in experiment [1] is reported as “binds”.

For HIF1-α (from UniProt Q16665 1-826), the binding result in experiment [1] is on record as “binds”.

Take “RUVBL2 (mouse, in tumor-propagating cells) (from UniProt Q9WTM5 1-463)”: in experiment [2], the binding entry is listed as “binds”.
